{
  "source": "PubChem BioAssay AID1347423",
  "about": "(Functional Genomics Laboratory (NCATS/FGL), 2020)",
  "note": "About 210 (0.4%) of roughly 52,000 sequences were called active.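 How the source made its calls: active means gene whose silencing raises cell survival under the drug, median off-target-corrected z-score across its silencing RNAs 2 or more; inactive means the rest.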 The list shows a part of the results.",
  "data": [
    {"test": "Resistance to Poly (ADP-Ribose) Polymerase inhibitor: Gene Identification via Genome-wide siRNA Screen", "conditions": "mouse BRCA2 R2336H ES cells, olaparib, CellTiter-Glo viability; active compounds read high", "in_short": "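Mouse BRCA2 R2336H ES cells were reverse-transfected with siRNA (20 nM final), treated at 48 h with 500 nM olaparib, and read by CellTiter-Glo after 72 h. Scores: MAD-based z per siRNA, median per gene, seed off-target correction.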", "values": [
      {"sequence": "GGCUUCUUCCUCGUCUUUGTT against Obrgrp", "z-score": "inactive: -0.522"},
      {"sequence": "CCUGUUCAAAAGGUAUACATT against Fignl1", "z-score": "inactive: -0.469"},
      {"sequence": "GGGCAAAGAACUGAACGAATT against Pfdn2", "z-score": "inactive: -1.6"},
      {"sequence": "GCUCAAAUCGUACAAGUGUTT against Panx1", "z-score": "inactive: 0.158"},
      {"sequence": "GGCGGAAACUGAUCAGCUUTT against Fosb", "z-score": "inactive: 0.843"},
      {"sequence": "GUACUUUCUUGAACCAGAGTT against Cacng7", "z-score": "inactive: 0.633"},
      {"sequence": "GGGUUUCCUGCCUGCUCAUTT against Litaf", "z-score": "inactive: -0.281"},
      {"sequence": "GGCAUUAAACACUUGCCAGTT against Fshr", "z-score": "inactive: 2.19"},
      {"sequence": "CCAACAAAAAGAUUACAACTT against Akap7", "z-score": "inactive: 0.217"},
      {"sequence": "GGUACUAGGCCUGAUCUUGTT against 1110007C05Rik", "z-score": "inactive: -1.62"},
      {"sequence": "GCAACAUCCAGGCUUGCCUTT against 1110004B13Rik", "z-score": "inactive: -0.0857"},
      {"sequence": "GCAAACUCCAGCUCAACGATT against Galnt4", "z-score": "inactive: 0.331"},
      {"sequence": "GGCUCUAACAUGACAAUUUTT against Hyal1", "z-score": "inactive: 0.0996"},
      {"sequence": "GCAUGUUCCAUGGAUUUUATT against Slfn10", "z-score": "inactive: 0.748"},
      {"sequence": "GGUCCUACAAAAAGAUGGATT against 0610006F02Rik", "z-score": "inactive: -0.71"},
      {"sequence": "GGUGGUUCACUGUAAGCCGTT against Spry4", "z-score": "inactive: -1.46"},
      {"sequence": "GCAAGUUUGGAGACAAUGATT against 4930547C10Rik", "z-score": "inactive: 0.749"},
      {"sequence": "GGUCCUAAAGCCUUUUCUATT against Mrpl10", "z-score": "inactive: 0.618"},
      {"sequence": "GGGUUGAACCAUUGUUAAATT against Cyld", "z-score": "inactive: 0.745"},
      {"sequence": "GGUAUGGGUGAGAGCAACUTT against 2310003L22Rik", "z-score": "inactive: -1.07"},
      {"sequence": "GGGCUGACUGCUCACUUAATT against Pnp", "z-score": "inactive: -1.27"},
      {"sequence": "GGAAUCUAUCUCUACUGUATT against Hp1bp3", "z-score": "inactive: 0.788"},
      {"sequence": "GCCGAAGAGGACAUCAUUGTT against D830032G16Rik", "z-score": "inactive: 1.24"},
      {"sequence": "CGGCCUUUAUGAAAAGUUATT against Rraga", "z-score": "inactive: 0.188"},
      {"sequence": "GGCAAGAUUUAGAGAAGCATT against Dnahc8", "z-score": "inactive: -1.07"},
      {"sequence": "UUCUAUGCCAUAUCCAUCATT against Olfr645", "z-score": "inactive: 0.947"},
      {"sequence": "GGAGUCAAAAGAAAAGAAGTT against Galm", "z-score": "inactive: 0.223"},
      {"sequence": "GGAAAACUUAUACUCAGAATT against V1rd20", "z-score": "inactive: -0.0883"},
      {"sequence": "GCGCAAUGAACGGUUCUACTT against D030028O16Rik", "z-score": "inactive: -1.11"},
      {"sequence": "GGACCUGAACACAGCUACUTT against Stoml1", "z-score": "inactive: 0.517"},
      {"sequence": "GGCCAUCUCUUUUAUUGUATT against 4833435D08Rik", "z-score": "inactive: -0.00425"},
      {"sequence": "GCAGGUUUAUGAAAGCUUUTT against 4921505C17Rik", "z-score": "inactive: -1.31"},
      {"sequence": "GGAAGUUACUGUUGAGUAGTT against Olfr114", "z-score": "inactive: -1.66"},
      {"sequence": "GGCACAAAUAUUCUGUACUTT against 9330182L06Rik", "z-score": "inactive: 1.15"},
      {"sequence": "CCACAUGAACAAUUUGGGCTT against Rpl9", "z-score": "inactive: -2.58"},
      {"sequence": "GCUUAGGAAUGGCGACAACTT against V1rh17", "z-score": "inactive: 0.566"},
      {"sequence": "GGAGCAUACAUCUAAGAUUTT against Zfp185", "z-score": "inactive: 2.17"},
      {"sequence": "CGGUAAUCAUUGCUGUUCUTT against H2-K1", "z-score": "inactive: -1.28"},
      {"sequence": "GGUGCAACCAGUGUGUGAUTT against Siat7f", "z-score": "inactive: -2.44"},
      {"sequence": "GCUCUGUUCACACGUUUAATT against Arhgap10", "z-score": "inactive: -1.12"},
      {"sequence": "GGAGAUACCUGUCAAACAATT against Npm2", "z-score": "inactive: 0.848"},
      {"sequence": "GGAUCAUGGGCGAAUGAUGTT against Rae1", "z-score": "inactive: -0.951"},
      {"sequence": "GGUUCAUCUUUCAAAUCUATT against Kpna4", "z-score": "inactive: -1.35"},
      {"sequence": "GGAAUCCUUUGUCAAAGGATT against Myh2", "z-score": "inactive: 1.04"},
      {"sequence": "CUCUAAGCAGCCGAACACUTT against Scx", "z-score": "inactive: -0.461"},
      {"sequence": "GGGCUACAAACAUGGAACGTT against 6330580J24Rik", "z-score": "inactive: 1.58"},
      {"sequence": "GCUUCUGACUUGUGAUGUGTT against 8430411H09Rik", "z-score": "inactive: -0.177"},
      {"sequence": "GCGAUAUGCCCUAACUGGATT against Mmp24", "z-score": "inactive: -0.749"},
      {"sequence": "GGUGCAAAGGCUCAAACAGTT against Rasd1", "z-score": "inactive: 0.758"},
      {"sequence": "GCACUGGAAAUUGUAUAAATT against 4932701A20Rik", "z-score": "inactive: 0.0923"},
      {"sequence": "GGAAUUGUCUAACAGGCUGTT against Hoxd12", "z-score": "inactive: 0.815"},
      {"sequence": "GGAUUACAAUCAGGAGGUGTT against Icsbp1", "z-score": "inactive: -1.27"},
      {"sequence": "GGAGUUAAACCACUCAAGATT against Ceacam11", "z-score": "inactive: 0.808"},
      {"sequence": "GGCAUUCCUCUUGAAUAUUTT against Dck", "z-score": "inactive: -1.2"},
      {"sequence": "CGGUAUUUCGGCAUAAUAATT against Chek1", "z-score": "inactive: -1.99"},
      {"sequence": "CCUUUUUUGUCGUACGUUUTT against Prkx", "z-score": "inactive: -0.22"},
      {"sequence": "GCUUUUUGAGUCUGAUUUATT against Dmgdh", "z-score": "inactive: 1.06"},
      {"sequence": "GGGCAGUCCAGGAAGAUUGTT against Akap3", "z-score": "inactive: 0.416"},
      {"sequence": "GCAGUUCUACGGACAUUUCTT against Pcdhb1", "z-score": "inactive: 0.267"},
      {"sequence": "GGUGUGGUCCUUGCAUCUUTT against LOC223706", "z-score": "inactive: -1.7"},
      {"sequence": "GGAGACCUUCUGAAACUAATT against Zfp198", "z-score": "inactive: -0.875"},
      {"sequence": "CCUGUUUAGCAUCUGGGAGTT against Gpr1", "z-score": "inactive: 0.774"},
      {"sequence": "GGAAAAUGCCUCAAGACUUTT against Wdr5b", "z-score": "inactive: -1.4"},
      {"sequence": "GGUUCAAUUCAAGUCUUUATT against Olfr195", "z-score": "inactive: -0.164"},
      {"sequence": "GGGAGGAUGCUGUUUCCAATT against Ssr3", "z-score": "inactive: -0.528"},
      {"sequence": "GCCUUCAUUCUGGUAGCUATT against Olfr207", "z-score": "inactive: -0.297"},
      {"sequence": "GCCUGAGUGAUAGUGAUUUTT against 4632404H22Rik", "z-score": "inactive: -0.442"},
      {"sequence": "GGAAUGAGAUUUCUUCAUGTT against Itih2", "z-score": "inactive: -0.232"},
      {"sequence": "CCGAUAGAUCUUAUUCUCATT against V1ri5", "z-score": "inactive: 0.0142"},
      {"sequence": "GGUUACUAUGGAGACCUGGTT against Mia", "z-score": "inactive: 0.107"},
      {"sequence": "GGCUGAAGUUACUUUGGAUTT against Nup98", "z-score": "inactive: -2.16"},
      {"sequence": "GGUACCUGACAAUGAUGAGTT against Etv1", "z-score": "inactive: -1.7"},
      {"sequence": "CGUUAAGAGUCCAAGUGAATT against Pvrl4", "z-score": "inactive: -0.186"},
      {"sequence": "GGUUAUUCAUGAUGUUUGCTT against Fbn1", "z-score": "inactive: 1.42"},
      {"sequence": "GGAUUCAUGAAAUAAGUCATT against Zfp426", "z-score": "inactive: 0.187"},
      {"sequence": "GGUUAUUAAGGAUAAACUGTT against Cops5", "z-score": "inactive: -2.48"},
      {"sequence": "GGCACUGAAACUGCUCCUGTT against Taar5", "z-score": "inactive: -1.14"},
      {"sequence": "GGUUCCUCACAAGCAUUCUTT against Olfr818", "z-score": "inactive: 0.39"},
      {"sequence": "GGAAGAUGUUGAUAAUAGATT against E130119P06Rik", "z-score": "inactive: 0.301"},
      {"sequence": "GGCCAACAAGCAGGUUUUUTT against 3110002H16Rik", "z-score": "inactive: 0.444"},
      {"sequence": "GGUGCUAUCUGAGAGGUACTT against Triobp", "z-score": "inactive: -0.776"},
      {"sequence": "GGGUAUAUCAGGGCCAAGUTT against Col4a5", "z-score": "inactive: -0.0254"},
      {"sequence": "GCCAACGAACUUUUUCGUATT against Zfp36l2", "z-score": "inactive: 0.373"},
      {"sequence": "GGCAAGGUUCUUGUUUUUATT against 1700020B09Rik", "z-score": "inactive: 0.103"},
      {"sequence": "CCCAGUUAGUGAGACUUACTT against B230362M20Rik", "z-score": "inactive: 0.21"},
      {"sequence": "GGAAAGAAACAGAAGCACATT against Il21", "z-score": "inactive: -0.344"},
      {"sequence": "GGAUUUGAUGCUAAAUGAATT against Pcdhb13", "z-score": "inactive: 0.238"},
      {"sequence": "GCGGUUGAUGCAUAUAAUUTT against Dyx1c1", "z-score": "inactive: -0.214"},
      {"sequence": "CGAUGUGGAAAGUCGGUAUTT against Csrp3", "z-score": "inactive: -1.7"},
      {"sequence": "CCCUGGUUCUAUGACUUAATT against Lass2", "z-score": "inactive: -1.66"},
      {"sequence": "GCAAGUGAAGAAACAGCACTT against Stx1b2", "z-score": "inactive: 0.519"},
      {"sequence": "CCUUUGGACGCAACCAGUUTT against Ugt1a9", "z-score": "inactive: -1.52"},
      {"sequence": "GAGUGAUGCGCAUUUCGAGTT against Sf3b5", "z-score": "inactive: -0.551"},
      {"sequence": "GCCAAGCUUACUCAGAUUUTT against 4732467B22", "z-score": "inactive: 0.837"},
      {"sequence": "GGACUAGACUGUGAAAUGATT against Satb2", "z-score": "inactive: -1.45"},
      {"sequence": "GCUUGAGAUACCAGAACCATT against 9530049C15Rik", "z-score": "inactive: -0.472"},
      {"sequence": "GGAUUAUGCCCUUCAUUGGTT against Rbbp7", "z-score": "inactive: -0.812"},
      {"sequence": "GGAGGAUCCUGAACGAAAATT against 2410018M14Rik", "z-score": "inactive: 1.07"},
      {"sequence": "CCUGUCUGUUUGAGGACGUTT against Adora2a", "z-score": "inactive: 0.42"},
      {"sequence": "GGAUUCAAGAAGUAAAUCCTT against Uty", "z-score": "inactive: 0.728"},
      {"sequence": "GUGCUCAGUUCCAAUUCCATT against Neurog3", "z-score": "inactive: 0.132"},
      {"sequence": "GGUUUCACAUUCAUCAACUTT against G630039H03Rik", "z-score": "inactive: 2.55"},
      {"sequence": "GGCCUUGAAGGAGAUGCUATT against 4631403P03Rik", "z-score": "inactive: 0.21"},
      {"sequence": "GCAUCCUUCACUCAAAUAUTT against Aspa", "z-score": "inactive: -0.271"}
    ]}
  ]
}
